Our source for the IFNγ and IL-5 values is patent US11421006B2, “T cell epitopes from Cockroach and methods of making and using same” (LA JOLLA INSTITUTE FOR ALLERGY AND IMMUNOLOGY, priority 2012, dated 2022).

Several values for one entry are separate records, joined by “and”; a condition that tells them apart may be missing. Equal entries are not always repeated.

The assay relates to Bla g-specific T cells (PBMC). Put plainly: ELISPOT assays: IL-5, IFN-γ and IL-10 production by in vitro expanded PBMC of Cockroach-allergic donors. The class given is cell-based, human. The following applies: individual peptide, one line per responding donor. How it is done:
In vitro expansion of Bla g-specific T cells: PBMC were cultured in RPMI 1640 (V Scientific, Tarzana, Calif.) supplemented with 5% human serum (Cellgro, Herndon, Va.) at a density of 2×10^6 cells/ml in 24-well plates (BD Biosciences, San Jose, Calif.) and stimulated with 25 μg/ml German Cockroach (Blatella germanica; Bla g) extract (Greer, Lenoir, N.C.), or individual peptides. […] On day 14, cells were harvested and screened for reactivity against Bla g-specific peptide pools or individual peptides. ELISPOT assays: The production of IL-5, IFN-γ, and IL-10 was analyzed in ELISPOT assays. […] Cells were then incubated at a density of 1×10^5/well either with peptide pools or individual peptides (10 μg/ml), German Cockroach extract (25 μg/ml), PHA (10 μg/ml), or medium (containing 1% DMSO corresponding to the percentage of DMSO in the pools/peptides) as a control. […] Louis, Mo.). Spots were counted by computer-assisted image analysis (Zeiss, KS-ELISPOT reader, Munich, Germany). Each assay was performed in triplicate. The level of statistical significance was determined with a Student's t-test using the mean of triplicate values of the response against relevant pools or individual peptides versus the response against the DMSO control.

For “DLVANQPNLKALREK (listed as Blattella germanica)”, the IFNγ is 177 SFC and 80 SFC; the IL-5 worked out at 0 SFC.
